This note sets out measurements from patent US20210230294A1.

By UniProt entry, the sequences of proteins in these tests, tags left out. Where a name states a change or a piece, a line headed by the entry shows the natural chain unless it says otherwise.
UniProt P21589: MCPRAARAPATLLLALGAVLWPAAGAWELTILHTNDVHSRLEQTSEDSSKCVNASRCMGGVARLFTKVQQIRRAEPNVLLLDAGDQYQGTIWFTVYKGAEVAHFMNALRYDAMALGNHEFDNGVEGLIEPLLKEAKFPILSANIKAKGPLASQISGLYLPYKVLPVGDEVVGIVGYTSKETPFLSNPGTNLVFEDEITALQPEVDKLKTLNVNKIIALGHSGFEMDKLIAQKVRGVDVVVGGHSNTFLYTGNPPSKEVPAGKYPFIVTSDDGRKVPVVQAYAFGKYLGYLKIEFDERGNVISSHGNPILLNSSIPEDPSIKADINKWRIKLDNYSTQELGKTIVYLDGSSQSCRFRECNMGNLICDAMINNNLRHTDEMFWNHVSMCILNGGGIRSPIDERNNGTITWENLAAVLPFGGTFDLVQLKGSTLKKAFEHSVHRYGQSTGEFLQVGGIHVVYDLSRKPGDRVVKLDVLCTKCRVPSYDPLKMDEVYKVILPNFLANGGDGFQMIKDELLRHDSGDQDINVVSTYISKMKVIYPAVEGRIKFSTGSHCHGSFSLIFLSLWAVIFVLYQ

For the experiment, the target named is human CD73 on the cell surface (MDA-MB-231 and A375 cells) (human) (UniProt P21589). The experiment can be described thus: flow cytometry on MDA-MB-231 cells, PE-conjugated secondary antibody, GMFI. In general terms: Flow cytometry measures light scatter and fluorescence of single cells or particles in a stream.

Residue numbers refer to the chain shown, from its start. No constants are given. Whether binding was seen depends on the method and setting. Some entries that bind do so weakly or less than the wild type.

B1: CL25_hu_11-5 (antibody, V domains shown)
VH: QVQLVQSGAEVKKPGASVKVSCKASGYTFTSYGLSWVRQATGQGLEWMGEIYPGSGNTYYNEKFKGRVTMTANTSISTAYMELSSLRSEDTAVYYCARYDYLGSSYGFDYWGAGTTVTVSS
VL: DIVMTQSPDSLAVSLGERATINCKASQDVSTAVAWYQQKPGQPPKLLIYSASYRYSGVPDRFSGSGSGTDFTLTISSLQAEDVAVYYCQQHYNTPYTFGGGTKLEIK
In the case of B1, the binding result is on record as “binds”.

B2: CL25_hu_9-5 (antibody, V domains shown)
VH: B1 VH with A16S, T41P, M70I, N73D, T74E, I76T
VL: B1 VL
For the molecule B2, the binding result is recorded as “binds”.

B3: CL25_hu_8-5 (antibody, V domains shown)
VH: B1 VH with A72R
VL: B1 VL
B3: the binding result is listed as “binds”.

B4: CL25_hu_10-6 (antibody, V domains shown)
VH: EVQLVQSGAEVKKPGESLKISCKGSGYTFTSYGLSWVRQMPGKGLEWMGEIYPGSGNTYYNEKFKGQVTISADKSISTAYLQWSSLKASDTAMYYCARYDYLGSSYGFDYWGAGTTVTVSS
VL: AIRMTQSPSSFSASTGDRVTITCKASQDVSTAVAWYQQKPGKAPKLLIYSASYRYSGVPSRFSGSGSGTDFTLTISCLQSEDFATYYCQQHYNTPYTFGGGTKLEIK
In the case of B4, the binding entry is reported as “binds”.

B5: CL25_hu_10-4 (antibody, V domains shown)
VH: B4 VH
VL: B4 VL with A1D, R3Q, F11L, T15V, I48L, F71Y, C77S, S80P
For B5, the binding result is listed as “binds”.

B6: CL25_hu_9-4 (antibody, V domains shown)
VH: B1 VH with A16S, T41P, M70I, N73D, T74E, I76T
VL: B4 VL with A1D, R3Q, F11L, T15V, I48L, F71Y, C77S, S80P
On to B6, for which the binding result is listed as “binds”.

B7: CL25_hu_8-4 (antibody, V domains shown)
VH: B1 VH with A72R
VL: B4 VL with A1D, R3Q, F11L, T15V, I48L, F71Y, C77S, S80P
Regarding B7, the binding entry is on record as “binds”.

B8: CL25_hu_8-6 (antibody, V domains shown)
VH: B1 VH with A72R
VL: B4 VL
As to B8, the binding result is listed as “binds”.

B9: CL25_hu_11-6 (antibody, V domains shown)
VH: B1 VH
VL: B4 VL
Consider B9, for which the binding result is “binds”.

B10: CL25_hu_9-6 (antibody, V domains shown)
VH: B1 VH with A16S, T41P, M70I, N73D, T74E, I76T
VL: B4 VL
On to B10, for which the binding entry is reported as “binds”.

B11: CL25_hu_11-4 (antibody, V domains shown)
VH: B1 VH
VL: B4 VL with A1D, R3Q, F11L, T15V, I48L, F71Y, C77S, S80P
Take B11: the binding result is on record as “binds”.
